According to publication PMC10731632, “Is Smaller Better? Cu^2+/Cu^+ Coordination Chemistry and Copper-64 Radiochemical Investigation of a 1,4,7-Triazacyclononane-Based Sulfur-Rich Chelator” (Inorganic Chemistry, 2023):

Test: [64Cu]Cu2+ radiolabeling (radiochemical incorporation, RCI, by radio-UHPLC and radio-TLC)
Conditions: for Maximum apparent molar activity with quantitative [64Cu]Cu2+ incorporation / Radiochemical incorporation (RCI) of [64Cu]Cu2+: 10 min
Method: To assess the ability of NO3S to chelate [^64Cu]Cu^2+ under extremely dilute radiochemical conditions, a radiolabeling investigation was conducted to explore the effects of temperature, pH, and chelator concentration on the radiochemical incorporation (RCI). Parallel experiments were performed as well using NODAGA, one of the current gold standards for [^64Cu]Cu^2+ chelation endowing a NOTA moiety, for comparison purposes. This ligand was also chosen as it contains the same TACN backbone of NO3S. The RCI was determined using both radio-UHPLC and radio-TLC analysis; a representative HPLC radiochromatogram is reported in Figure S25.
[^64Cu]CuCl2 in 0.5 M HCl (molar activity around 40 GBq/nmol) was purchased from Advanced Center Oncology Macerata ACOM (Italy). NO3S and NODAGA stock solutions were prepared in ultrapure water at 1.0 × 10^–3 M and diluted appropriately to give a serial dilution series (1.0 × 10^–4–1.0 × 10^–7 M).
Radiolabeling data were collected through the addition of [^64Cu]CuCl2 diluted in 0.05 M HCl (1 MBq, 10 μL) to a solution containing the ligand (20 μL) diluted in sodium acetate buffer (90 μL, pH = 4.5) or sodium phosphate buffer (90 μL, pH = 7). Different apparent molar activities were tested from 0.1 to 1000 MBq/nmol, corresponding to a final ligand concentration ranging from 1.0 × 10^–4 to 1.0 × 10^–9 M. The reaction mixtures were allowed to react for 10 min at ambient temperature or 95 °C. All radiolabeling reactions were repeated at least in triplicate. Radiochemical incorporation (RCI) was determined via radio-UHPLC using the analytical method previously described.[26] Alternatively, radio-thin layer chromatography (radio-TLC) on silica gel 60 RP-18 F254S plates with sodium citrate (1 M, pH = 4) as the eluent was employed. Under these conditions, free [^64Cu]Cu^2+ migrates with the solvent front (Rf = 1) while [^64Cu]Cu^2+ complexes remain at the baseline (Rf = 0). A Cyclone Plus Storage Phosphor System (PerkinElmer) was used to analyze the radio-TLC plates after their exposure to a super-resolution phosphor screen (type MS, PerkinElmer; Waltham, MA, USA). All of the data were processed with OptiQuant software (version 5.0, PerkinElmer Inc.; Waltham, MA, USA).

CSCCN1CCN(CCSC)CCN(CCSC)CC1 [NO3S]
Maximum apparent molar activity with quantitative [64Cu]Cu2+ incorporation (pH = 4.5, 95 °C): around 5 MBq/nmol | Molar activity of quantitative incorporation relative to DO4S (pH = 4.5, room temperature): more than 2 fold | Maximum apparent molar activity with quantitative [64Cu]Cu2+ incorporation (pH = 4.5, room temperature): 2.5 MBq/nmol | Radiochemical incorporation (RCI) of [64Cu]Cu2+ (pH = 4.5, room temperature, apparent molar activity up to 2.5 MBq/nmol): > 99% | Radiochemical incorporation (RCI) of [64Cu]Cu2+ (pH = 4.5, room temperature, molar activities >100 MBq/nmol): < 5% | Maximum apparent molar activity with quantitative [64Cu]Cu2+ incorporation (pH = 7.0, ambient temperature): ~10 MBq/nmol | Radiochemical incorporation (RCI) of [64Cu]Cu2+ (pH = 7.0, ambient temperature, 50 MBq/nmol): 39% | Radiochemical incorporation (RCI) of [64Cu]Cu2+ (pH = 7.0, ambient temperature, 100 MBq/nmol): 28%
